By UniProt entry, the sequences of proteins in these tests, tags left out. Residues count along the entry.
UniProt P0A7G6, 2-353: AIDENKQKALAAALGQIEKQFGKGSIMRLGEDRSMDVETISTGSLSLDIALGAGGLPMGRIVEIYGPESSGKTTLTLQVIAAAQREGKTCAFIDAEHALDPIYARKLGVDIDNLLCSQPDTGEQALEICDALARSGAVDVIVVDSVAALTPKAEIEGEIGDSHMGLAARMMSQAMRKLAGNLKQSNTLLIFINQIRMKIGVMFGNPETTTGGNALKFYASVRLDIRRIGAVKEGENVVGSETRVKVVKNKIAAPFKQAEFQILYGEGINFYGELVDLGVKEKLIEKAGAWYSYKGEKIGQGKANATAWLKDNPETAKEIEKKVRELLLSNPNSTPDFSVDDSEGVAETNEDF

In article PMC7655802:

How the values were obtained:
[1] = target: RecA (UniProt P0A7G6); experiment: EMSA (glutaraldehyde-fixed); settings: pH 8, 1 mM ATP, 10 mM Mg2+; EMSA: 50 mM phosphate/citrate pH 5-8, 50 mM NaCl, 10 mM MgCl2, 1 mM ATP, 25 C, 5 min, then 0.125% glutaraldehyde; commercial …; label: 5'-FITC; single-stranded DNA; scale: reference
[2] = target: RecA (UniProt P0A7G6); experiment: stopped-flow fluorescence; settings: pH 8, 1 mM ATP, 10 mM Mg2+, half-time >3000 times that at pH 5 (several minutes); stopped-flow: 20 nM dT79, 1 mM ATP, 10 mM MgCl2; commercial protein; label: 5'-Cy3; single-stranded DNA

With “AAATCAATCTAAAGTATATATGAGTAAACTTGGTCTGACAGTTACCAATGCTTAATCAGTGAGGCACCTATCTCAGCGATCTGTCTATTT [90mer oligonucleotide]” the binding signal [1] was 1.

“TTTTTTTTTTTTTTTTTTTTTTTTTTTTTTTTTTTTTTTTTTTTTTTTTTTTTTTTTTTTTTTTTTTTTTTTTTTTTTT [dT79]”: binds more weakly [2].

Construct, isoform or probe ends are uncertain for at least one entry. For some assays here: The comparison behind a weaker result is the experiment's own reference, which may not be listed here. For some assays here: The direction of at least one scale is not stated here.
